Changes are numbered by the printed parent chain. The comparison behind a weaker result is the experiment's own reference, which may not be listed here. Protein sequences can lack the tags named with them.
What was measured:
[1] = target: T1, SYCP3 dCt6 dBP1 K52A,R53A,R54A,K55A,K56A,R57A (human) (UniProt Q8IZU3); experiment: fluorescence anisotropy; conditions: 20 mM Tris pH 8.0, 150 mM KCl; FA at 25 C with 25 nM DNA (0-20 uM protein); recombinant protein; residues 1-230; protein details: N-terminal His6, TEV-cleaved; label: 5' FAM
T1 sequence (looked up): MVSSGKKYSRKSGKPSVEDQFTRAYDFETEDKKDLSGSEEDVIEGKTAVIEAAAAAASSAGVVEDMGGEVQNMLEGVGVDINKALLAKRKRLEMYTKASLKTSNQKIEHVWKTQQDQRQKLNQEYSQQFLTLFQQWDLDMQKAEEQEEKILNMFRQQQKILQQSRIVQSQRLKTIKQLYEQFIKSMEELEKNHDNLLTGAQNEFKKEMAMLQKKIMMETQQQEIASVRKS

[2] = target: T2, SYCP3 dCt6 dBP2 K88A,R89A,K90A,R91A (human) (UniProt Q8IZU3); experiment: fluorescence anisotropy; conditions: 20 mM Tris pH 8.0, 150 mM KCl; FA at 25 C with 25 nM DNA (0-20 uM protein); recombinant protein; residues 1-230; protein details: N-terminal His6, TEV-cleaved; label: 5' FAM
T2 sequence (looked up): T1 sequence (looked up) with A52K, A53R, A54R, A55K, A56K, A57R, K88A, R89A, K90A, R91A

## ATGGTGTGTGTAGGTTAATGTGAGGAGGAGAGGTGAAGAAGGAGGAGAGAAGAAGGAGGC (double strand) [60 bp FAM-dsDNA]
[1]
  binding result: binds more weakly
[2]
  binding result: binds more weakly
